Assay results as given in PubChem BioAssay AID1347423 (Functional Genomics Laboratory (NCATS/FGL), 2020).
Screen size: about 52,000 sequences; about 210 (0.4%) were called active.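 Rule for the calls: active = gene whose silencing raises cell survival under the drug, median off-target-corrected z-score across its silencing RNAs 2 or more; inactive = the rest.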 Some of the results follow.

Experiment: Resistance to Poly (ADP-Ribose) Polymerase inhibitor: Gene Identification via Genome-wide siRNA Screen
Settings: mouse BRCA2 R2336H ES cells, olaparib, CellTiter-Glo viability; stronger effect = higher value
Summary of the method: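 Genome-wide siRNA screen (3 siRNAs/gene, 20 nM) in mouse ES cells carrying hypomorphic BRCA2 R2336H; olaparib 500 nM added 48 h post-transfection, CellTiter-Glo viability 72 h later. Normalized to plate-median negative control; MAD z-scores, gene median, seed-adjusted.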

| Sequence | z-score |
| --- | --- |
| GGUCCAGAAUCAGAGGAGUTT against Trim10 | inactive: -0.127 |
| GCCAAAUUUGUCAUCCACUTT against H2afy3 | inactive: 0.296 |
| GGCCUUGAUUCAAUUCAACTT against Tgm6 | inactive: -0.154 |
| GGCUUGUGGUCAUCUCAUGTT against Olfr282 | inactive: 0.742 |
| GGAUGCACUCAAGAAUUACTT against 4933417K04Rik | inactive: 0.401 |
| GGCCUUAUAACUCAUAUAUTT against 2210010B09Rik | inactive: 0.328 |
| GGAGAAAAUCAAGGUGUUATT against Cutl2 | inactive: 0.575 |
| GCUCAUGAGUAGCUUAGUUTT against Mtch2 | inactive: -0.36 |
| GGCCUGCCUGAAAAAAAAATT against Map1lc3a | inactive: 0.202 |
| GGCAUCAUCUCAGUCAUGUTT against 2410015M20Rik | inactive: -2.2 |
| GCUCAUCUGUGAAUACAAUTT against 5730410I19Rik | inactive: -0.568 |
| GGCCUACAGGACAAAGUUUTT against Comt | inactive: -0.624 |
| GGAUUGAAAGCUACUCGUGTT against Maf1 | inactive: -0.911 |
| GGGUCUCUGGCUUCAUUUUTT against Socs1 | inactive: 0.00862 |
| GGAGAAGGGCUUUUCUGUUTT against Gbp5 | inactive: -0.875 |
| GCAGAGAGAUACAUUAAAGTT against Adam10 | inactive: 0.478 |
| GGCAUUUAUUAUCAGGCUGTT against Pes1 | inactive: -1.46 |
| GGGAAGCCUUUCUUGUCAGTT against V1rb7 | inactive: -0.659 |
| GCAAAAAACAGGGUAACUCTT against Cacna1d | inactive: -0.338 |
| GGUUCAUGUGUGCACAGCUTT against Ehd1 | inactive: 0.627 |
| GCUAUGACUCCAACAUGCGTT against Gm638 | inactive: 1.49 |
| GCUCAACAGAUCAUGCCACTT against Tapbpl | inactive: 0.3 |

| Sequence | z-score |
| --- | --- |
| GCUCAUUCUUACCAAUCUCTT against 2210413P10Rik | inactive: -0.897 |
| GGAACUUCACAGGAACUCUTT against Nol4 | inactive: -0.104 |
| CGUGCCCAAGAAUGCCCUUTT against Actr5 | inactive: 0.294 |
| CCUACAGAGUACCCUGUCUTT against LOC237891 | inactive: -0.766 |
| GGCAGUGAAUUCAACCGCATT against Gtf2f1 | inactive: -1.46 |
| GGCAGAUCGAAGAGAACAATT against Prlpc2 | inactive: -1.33 |
| GGCUUUGAGCAUGUUUUCATT against Hspb7 | inactive: -0.569 |
| GAACCCAGAUCUGCACAACTT against Sox17 | inactive: -1.07 |
| CCUAUUGAAUUGACCCUAATT against Muc20 | inactive: -1.8 |
| CGAGGUUGAAGAUCUCUAUTT against 5730421E18Rik | inactive: 1.2 |
| CGACUACCACACGUGGAAUTT against 0610039P13Rik | inactive: 0.691 |
| CCAGUCAUCAUGCUACACGTT against Slc19a3 | inactive: 0.651 |
| GCAAAACGAUGACUCGGAGTT against Lhx4 | inactive: 0.126 |
| GGCUAUUCCGCAUUCUACGTT against 1110057K04Rik | inactive: 0.47 |
| GGUCCUUAGGUGACCUCCUTT against Lrrc20 | inactive: 0.274 |
| GGAUAUCGUUGUUUCUGAGTT against Lmbr1 | inactive: -0.52 |
| GGGCAUAAAAUCAUUGCCUTT against Tigd4 | inactive: -1.16 |
| GGCUGGGUAAAACCCAUCATT against Idh1 | inactive: 1.28 |
| GCUGAUUCGGCUUAUGAUCTT against A330080J22Rik | inactive: -0.286 |
| GGUAGACAACUGGAUAAAUTT against Gpnmb | inactive: -0.115 |
| GCGAGUCAUACCAAUUAGATT against Htf9c | inactive: -0.219 |
| GGCUCUAACAGCUACAUGUTT against Hspb7 | inactive: 0.614 |

Random excerpt: 3 entries already listed.

| Sequence | z-score |
| --- | --- |
| GGCUUUGAGCAUGUUUUCATT against Hspb7 | inactive: -0.569 |
| GGCAGUGAAUUCAACCGCATT against Gtf2f1 | inactive: -1.46 |
| GGCAUCAUCUCAGUCAUGUTT against 2410015M20Rik | inactive: -2.2 |

(list continues)

| Sequence | z-score |
| --- | --- |
| GGGCAAGAAAUCAAGGUUUTT against Krtap3-2 | inactive: -0.675 |
| GAUCUGGUAUGUUUGUGACTT against Olfr1414 | inactive: 0.519 |
| GGACCAAAAGGAAAAUCCATT against Kcnj6 | inactive: 0.118 |
| GGACAAUUGCCUUUUGACATT against Thbs3 | inactive: -0.207 |
| GGAGUUUGGGACCCUACUUTT against Mllt7 | inactive: -0.581 |
| GAAUCAUGAUAGAAUGCAUTT against AI987944 | inactive: 1.32 |
| GGCAAAGCCAAAAGAAAUATT against B230380D07Rik | inactive: 0.00605 |
| CGGCGAGUUCACAUUUCUGTT against Il1rl1l | inactive: -0.544 |
| GGGAAAACAGCCCUUUCAUTT against Slc12a7 | inactive: -0.171 |
| GCGAGGUGUCUCUAUCAACTT against Mrpl11 | inactive: 1.4 |
| GUUUGAUGUCUGUCUAACATT against Olfr608 | inactive: -0.215 |
| GUCAGAUGAUUCUAUUCUCTT against Rps21 | inactive: -2.72 |
| GCCGCUACACAUCAAACCATT against Zc3hdc3 | inactive: -1.49 |
| GGCUCUAUGAGUCUACCUATT against Cdx1 | inactive: 0.68 |
| GCACUCCUUCGAUUUAAUCTT against AI505034 | inactive: -0.939 |
| GGAAGUUUGUUUGCUGUUATT against 2210009G21Rik | inactive: 2.5 |
| GAGGGUGUGCAUUCUUCUATT against Olfr1242 | inactive: -0.348 |
| GGGAUUCAUAAGGAGAAAATT against Tm4sf2 | inactive: -0.67 |
| GGACAAAGAUAAAGAAGAUTT against Lsp1 | inactive: -1.25 |
| CCAGAAGUUAGAACAGUUCTT against Rp9h | inactive: -1.13 |
| GGUGAUUGAGUUGGAGAGGTT against Nkx3-1 | inactive: -0.427 |
| GCAUGAUCCAGCUUUCUAGTT against Bard1 | inactive: -2.24 |
